Paper PMC6158030

Tests used:
[1] = target: T1, GST-PID1 fusion protein (murine phosphotyrosine interacting domain-containing protein 1) (mouse) (UniProt Q3UBG2); assay: pull-down; GST-PID1 incubated over night at 4 °C with liver lysates (150 μg) of wild type, LRP1 knockin or liver-specific Lrp1-/- mice; washed six times with PBS; Western blot; only the target purified
T1 sequence: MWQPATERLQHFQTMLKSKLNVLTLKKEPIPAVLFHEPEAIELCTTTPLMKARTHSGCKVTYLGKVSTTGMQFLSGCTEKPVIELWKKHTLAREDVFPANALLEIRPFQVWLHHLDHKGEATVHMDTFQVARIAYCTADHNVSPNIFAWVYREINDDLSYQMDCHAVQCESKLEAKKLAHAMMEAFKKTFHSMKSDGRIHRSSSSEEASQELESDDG

[2] = target: T1, GST-PID1 fusion protein (murine phosphotyrosine interacting domain-containing protein 1) (mouse); assay: pull-down; GST-PID1 on Glutathion Sepharose with recombinant wild type and mutant LRP1-ICDs; pellets washed six times with PBS; Western blot of pulldown and unbound fractions; both purified

| Substance | binding [1] | binding [2] |
| --- | --- | --- |
| LRP1 with a mutated distal NPxY motif, endogenous in liver of LRP1 knockin mice (mouse (endogenous in liver)) (receptor) | no binding |  |
| LRP1-ICD lacking both functional NPxY domains (N1/2) (domain or fragment) |  | no binding |

Next, values leading:

| binding [1] | binding [2] | Substance |
| --- | --- | --- |
| binds |  | LDL receptor-related protein 1 (LRP1), endogenous in wild type mouse liver |
|  | no binding | LRP1-ICD lacking the functional distal NPxY domain (N2) (domain or fragment) |
|  | binds | LRP1-ICD lacking the functional proximal NPxY domain (N1) (domain or fragment) |

No constants are given. Whether binding was seen depends on the method and setting. Binding calls can cover weak binding; strength is not graded here. Tags and fused reporters may be left off the sequences shown. For some assays here: In cells and extracts the contact can be indirect.
